Laboratory results as given in article PMC7657459, “A second hybrid-binding domain modulates the activity of Drosophila ribonuclease H1”.
Results are given in words; binding and its absence hold for the method and conditions named. For part of these data: In cells and extracts the contact can be indirect. For part of these data: Tags and fused reporters may be left off the sequences shown. Each block holds one molecule with its values, some of them ahead of it.

Amino acid sequences for entries named in this document (tags omitted). A change or cut given only in a name is not applied to a line headed by its entry.
UniProt A1Z769: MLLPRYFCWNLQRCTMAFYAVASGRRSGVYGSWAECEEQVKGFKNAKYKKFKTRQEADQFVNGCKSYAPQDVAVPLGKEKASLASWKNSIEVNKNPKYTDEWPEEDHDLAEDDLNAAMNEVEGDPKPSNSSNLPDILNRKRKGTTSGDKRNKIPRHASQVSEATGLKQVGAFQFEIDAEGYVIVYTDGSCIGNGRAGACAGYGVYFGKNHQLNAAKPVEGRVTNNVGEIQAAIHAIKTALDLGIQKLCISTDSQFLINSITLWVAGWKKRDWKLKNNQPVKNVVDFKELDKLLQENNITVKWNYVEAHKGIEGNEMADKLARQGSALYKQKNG

Assays:
[1] = target: T1, HA epitope-tagged mitochondrial single-stranded DNA-binding protein (Drosophila melanogaster) (UniProt P54622); assay: co-IP; S2 cells co-overexpressing RNase H1-V5/His and mtSSB-HA, formaldehyde cross-linked; immunoprecipitation with anti-V5 or anti-HA; Western blot with anti-HA and anti-6x-His
T1 sequence: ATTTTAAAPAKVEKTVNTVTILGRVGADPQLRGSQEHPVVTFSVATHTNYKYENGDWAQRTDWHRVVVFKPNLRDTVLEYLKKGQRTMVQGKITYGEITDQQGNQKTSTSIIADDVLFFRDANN

[2] = target: Drosophila melanogaster ribonuclease H1, V5/His epitope-tagged (Drosophila melanogaster) (UniProt A1Z769); assay: as above
[3] = target: Dm RNase H1 D252N (amino acids 17-333), bacterially expressed (Drosophila melanogaster); assay: condition: mtSSB up to 7.5 μM with 1 µM RNase H1 D252N; native gel or EMSA; 1 µM RNase H1 D252N with 30-bp RNA/DNA hybrid, incubated with 1, 2.5, 5, 7.5 μM free mtSSB or ssDNA + mtSSB complex, 10 min at room temperature; both purified

binding [1]: no binding
Molecule: Drosophila melanogaster ribonuclease H1, V5/His epitope-tagged (from UniProt A1Z769) (enzyme)

binding [2]: no binding
B1: HA epitope-tagged mitochondrial single-stranded DNA-binding protein (protein, UniProt P54622 23-146)
chain: ATTTTAAAPAKVEKTVNTVTILGRVGADPQLRGSQEHPVVTFSVATHTNYKYENGDWAQRTDWHRVVVFKPNLRDTVLEYLKKGQRTMVQGKITYGEITDQQGNQKTSTSIIADDVLFFRDANN

binding [3]: no binding
B2: Drosophila mitochondrial single-stranded DNA-binding protein, purified (protein, UniProt P54622 23-146)
chain: ATTTTAAAPAKVEKTVNTVTILGRVGADPQLRGSQEHPVVTFSVATHTNYKYENGDWAQRTDWHRVVVFKPNLRDTVLEYLKKGQRTMVQGKITYGEITDQQGNQKTSTSIIADDVLFFRDANN
